System: ovarian cancer tissues
Assay: Immunohistochemical (IHC) staining of ovarian tissues using GHR-106
Set-up: species or system human

B1: GHR-106: monoclonal antibody against synthetic peptide of positions 1-29 of the extracellular domain of human GnRH receptor; hybridoma ATCC PTA-10252 (antibody, V domains shown)
VL: MDSQAQVLILLLLWVSGTCGDIVMSQSPSSLAVSAGEKVTMSCKSSQSLLNSRTRKNYLAWYQQKPGQSPKLLIYWASTRESGVPDRFTGSGSGTDFTLTISSVQAEDLAVYYCKQSYNLYTFGGGTKLEIK
VH: QVQLKESGPGLVAPSQSLSITCTVSGFSLSRYSVHWVRQPPGKGLEWLGMIWGGGSTDYNSALKSRLSISKDNSKSQVFLKMNSLQTDDTAMYYCARGNDGYYSFAYWGQGTLVTVSS
modifications: Synthetically constructed monoclonal antibody GHR106
With B1 the “IHC staining of normal controls” value (13 normal controls) was “no staining” and the “positive IHC staining rate” value (ovarian cancer stage I) was “about 40%”.

Reference: US8361793B2, “Monoclonal antibodies against gonadotropin-releasing hormone receptor” (Vancouver Biotech Ltd., priority 2009, dated 2013)
